In publication PMC8373112:
These are yes or no findings as the source states them, for the method shown. Some binding calls cover weakened binding; strength is not graded here. Where a sequence is shown, tags or fusion partners need not be part of it.

T1: RqcH^DR-FLAG3 (B. subtilis RqcH with the D97A/R98A double substitution in the NFACT-N domain, C-terminally FLAG3-tagged) (B. subtilis) (UniProt O34693)
T1 sequence: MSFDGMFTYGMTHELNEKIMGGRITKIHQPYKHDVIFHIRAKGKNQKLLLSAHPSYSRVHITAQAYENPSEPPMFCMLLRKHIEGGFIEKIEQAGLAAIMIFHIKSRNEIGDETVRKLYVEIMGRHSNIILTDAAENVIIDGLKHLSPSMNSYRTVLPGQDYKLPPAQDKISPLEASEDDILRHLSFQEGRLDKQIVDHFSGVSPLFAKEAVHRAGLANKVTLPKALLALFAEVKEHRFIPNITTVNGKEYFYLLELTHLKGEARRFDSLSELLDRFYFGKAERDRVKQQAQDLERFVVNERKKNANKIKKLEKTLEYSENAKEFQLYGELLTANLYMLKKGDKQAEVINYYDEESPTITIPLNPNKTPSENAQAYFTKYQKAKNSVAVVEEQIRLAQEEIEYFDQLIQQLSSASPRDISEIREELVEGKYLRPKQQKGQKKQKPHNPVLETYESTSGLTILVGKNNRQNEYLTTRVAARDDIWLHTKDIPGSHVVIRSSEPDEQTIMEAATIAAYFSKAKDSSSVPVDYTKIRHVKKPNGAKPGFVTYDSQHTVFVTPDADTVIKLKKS


How the values were obtained:
[1] = biological target: ribosomal protein uL11 (B. subtilis (endogenous in B. subtilis)) (UniProt Q06796); experiment: cryo-EM structure; 50S RQC complexes formed in vivo, affinity-purified through C-terminally FLAG3-tagged RqcH^DR from B. subtilis lysate; focussed classification; overall resolution 3.2 Å, RqcH and other bound factors less well resolved
[2] = biological target: T1, RqcH^DR-FLAG3 (B. subtilis RqcH with the D97A/R98A double substitution in the NFACT-N domain, C-terminally FLAG3-tagged) (B. subtilis); experiment: as above

binding [1]	binding [2]	Binder
binds		RqcH^DR-FLAG3 (B. subtilis RqcH with the D97A/R98A double substitution in the NFACT-N domain, C-terminally FLAG3-tagged) (protein, UniProt O34693 1-570) MSFDGMFTYGMTHELNEKIMGGRITKIHQPYKHDVIFHIRAKGKNQKLLLSAHPSYSRVHITAQAYENPSEPPMFCMLLRKHIEGGFIEKIEQAGLAAIMIFHIKSRNEIGDETVRKLYVEIMGRHSNIILTDAAENVIIDGLKHLSPSMNSYRTVLPGQDYKLPPAQDKISPLEASEDDILRHLSFQEGRLDKQIVDHFSGVSPLFAKEAVHRAGLANKVTLPKALLALFAEVKEHRFIPNITTVNGKEYFYLLELTHLKGEARRFDSLSELLDRFYFGKAERDRVKQQAQDLERFVVNERKKNANKIKKLEKTLEYSENAKEFQLYGELLTANLYMLKKGDKQAEVINYYDEESPTITIPLNPNKTPSENAQAYFTKYQKAKNSVAVVEEQIRLAQEEIEYFDQLIQQLSSASPRDISEIREELVEGKYLRPKQQKGQKKQKPHNPVLETYESTSGLTILVGKNNRQNEYLTTRVAARDDIWLHTKDIPGSHVVIRSSEPDEQTIMEAATIAAYFSKAKDSSSVPVDYTKIRHVKKPNGAKPGFVTYDSQHTVFVTPDADTVIKLKKS
	binds	RqcP (protein, UniProt P37557 1-86) MRLDKFLKVSRLIKRRTLAKEVADQGRISINGNQAKASSDVKPGDELTVRFGQKLVTVQVNELKDTTKKEEAANMYTILKEEKLGE
